Some of the results follow.
Legend:
Test in all cases: log2 fold change, soluble protein after heating vs DMSO (PISA); higher = thermal stabilisation; K562 lysate, 10 uM; active = over 0.2 and 3.5 SD of the protein, either way, in both replicates (recomputed)
erlotinib = compound: C#Cc1cccc(Nc2ncnc3cc(OCCOC)c(OCCOC)cc23)c1 [erlotinib]
In short: (§1)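 K562 pellets were dounce-homogenised in PBS pH 7.4 containing 1 mM MgCl2, and the crude extract, at 1 mg/mL protein, was exposed to 10 μM compound for 30 min. Aliquots were heated for 3 min across 48°C-58°C, pooled, brought to 0.5% NP-40 at 4°C and spun at 21,000xg for 90 min, with the supernatant taken as soluble protein. TMTpro 16plex LC-MS/MS with equalised channel sums quantified that protein. Values are log-two fold changes in thermal stability relative to solvent controls, taken from duplicates.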

Protein sequences, listed by entry. Tags and fused reporters are not part of them. Lines headed by an entry give the natural chain unless they say otherwise; changes in a name come on top.
UniProt O00268, whole entry, looked up: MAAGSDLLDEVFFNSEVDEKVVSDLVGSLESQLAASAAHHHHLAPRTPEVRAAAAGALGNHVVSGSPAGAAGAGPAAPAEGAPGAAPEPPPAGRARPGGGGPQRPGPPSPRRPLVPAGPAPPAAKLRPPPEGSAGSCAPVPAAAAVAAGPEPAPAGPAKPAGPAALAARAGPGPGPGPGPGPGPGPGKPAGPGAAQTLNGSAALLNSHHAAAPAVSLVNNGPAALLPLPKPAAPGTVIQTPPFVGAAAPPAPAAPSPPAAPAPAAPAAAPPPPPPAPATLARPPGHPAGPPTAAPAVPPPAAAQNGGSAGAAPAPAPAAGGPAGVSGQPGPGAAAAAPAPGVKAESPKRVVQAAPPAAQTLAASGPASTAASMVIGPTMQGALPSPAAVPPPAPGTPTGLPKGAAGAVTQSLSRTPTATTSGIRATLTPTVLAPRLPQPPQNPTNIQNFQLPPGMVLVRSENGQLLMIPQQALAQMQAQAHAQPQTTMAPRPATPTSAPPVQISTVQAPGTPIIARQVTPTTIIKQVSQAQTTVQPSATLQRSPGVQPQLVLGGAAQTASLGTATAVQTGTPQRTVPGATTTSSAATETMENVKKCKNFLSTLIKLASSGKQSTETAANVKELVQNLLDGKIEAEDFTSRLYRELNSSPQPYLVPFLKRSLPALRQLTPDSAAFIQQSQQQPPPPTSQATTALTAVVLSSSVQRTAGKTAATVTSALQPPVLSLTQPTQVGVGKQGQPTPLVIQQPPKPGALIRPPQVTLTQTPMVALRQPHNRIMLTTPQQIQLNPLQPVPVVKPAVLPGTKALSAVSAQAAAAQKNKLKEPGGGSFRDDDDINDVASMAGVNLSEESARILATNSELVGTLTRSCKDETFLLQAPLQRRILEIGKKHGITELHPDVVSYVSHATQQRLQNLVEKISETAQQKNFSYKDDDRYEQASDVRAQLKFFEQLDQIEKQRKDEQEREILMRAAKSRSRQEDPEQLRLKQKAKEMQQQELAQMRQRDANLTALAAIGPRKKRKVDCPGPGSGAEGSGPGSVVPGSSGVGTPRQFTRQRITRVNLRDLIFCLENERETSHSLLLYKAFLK
UniProt Q8IWZ8: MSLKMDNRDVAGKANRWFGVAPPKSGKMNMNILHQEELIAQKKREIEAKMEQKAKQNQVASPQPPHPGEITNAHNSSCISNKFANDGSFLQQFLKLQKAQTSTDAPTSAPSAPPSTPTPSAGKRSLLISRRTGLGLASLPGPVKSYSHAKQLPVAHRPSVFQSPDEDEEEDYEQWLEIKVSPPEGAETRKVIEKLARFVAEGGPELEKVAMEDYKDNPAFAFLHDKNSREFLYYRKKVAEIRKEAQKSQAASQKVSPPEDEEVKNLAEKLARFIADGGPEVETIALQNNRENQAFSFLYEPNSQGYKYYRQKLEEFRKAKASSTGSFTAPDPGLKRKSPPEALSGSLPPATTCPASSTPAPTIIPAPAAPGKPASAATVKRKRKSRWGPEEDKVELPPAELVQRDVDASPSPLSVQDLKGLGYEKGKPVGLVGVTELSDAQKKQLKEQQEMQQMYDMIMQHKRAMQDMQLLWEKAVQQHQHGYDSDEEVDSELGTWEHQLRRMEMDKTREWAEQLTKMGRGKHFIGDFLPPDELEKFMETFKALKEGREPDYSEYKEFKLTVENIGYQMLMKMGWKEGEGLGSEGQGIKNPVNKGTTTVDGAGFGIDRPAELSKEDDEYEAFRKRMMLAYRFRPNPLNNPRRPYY
UniProt Q9NRL3: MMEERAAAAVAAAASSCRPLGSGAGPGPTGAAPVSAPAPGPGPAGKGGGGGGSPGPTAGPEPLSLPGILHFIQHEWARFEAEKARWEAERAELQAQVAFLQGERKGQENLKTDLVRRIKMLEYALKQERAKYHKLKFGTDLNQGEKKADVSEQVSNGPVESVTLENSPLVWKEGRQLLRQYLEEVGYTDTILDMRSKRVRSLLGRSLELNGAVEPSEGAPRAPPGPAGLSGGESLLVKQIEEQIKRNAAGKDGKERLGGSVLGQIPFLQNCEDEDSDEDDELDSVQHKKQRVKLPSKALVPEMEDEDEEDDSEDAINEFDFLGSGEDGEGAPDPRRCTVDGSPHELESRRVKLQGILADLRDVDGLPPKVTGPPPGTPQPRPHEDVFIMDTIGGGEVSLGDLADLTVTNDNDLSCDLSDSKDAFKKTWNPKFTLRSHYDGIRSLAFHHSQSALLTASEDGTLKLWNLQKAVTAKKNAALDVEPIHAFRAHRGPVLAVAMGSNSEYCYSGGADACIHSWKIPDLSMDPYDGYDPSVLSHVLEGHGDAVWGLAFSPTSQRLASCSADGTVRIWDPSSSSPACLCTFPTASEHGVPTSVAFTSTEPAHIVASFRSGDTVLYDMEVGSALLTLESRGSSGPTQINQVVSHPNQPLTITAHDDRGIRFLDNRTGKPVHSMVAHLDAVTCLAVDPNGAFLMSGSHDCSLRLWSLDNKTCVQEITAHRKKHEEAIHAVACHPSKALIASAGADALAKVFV
UniProt P31948, whole entry, looked up: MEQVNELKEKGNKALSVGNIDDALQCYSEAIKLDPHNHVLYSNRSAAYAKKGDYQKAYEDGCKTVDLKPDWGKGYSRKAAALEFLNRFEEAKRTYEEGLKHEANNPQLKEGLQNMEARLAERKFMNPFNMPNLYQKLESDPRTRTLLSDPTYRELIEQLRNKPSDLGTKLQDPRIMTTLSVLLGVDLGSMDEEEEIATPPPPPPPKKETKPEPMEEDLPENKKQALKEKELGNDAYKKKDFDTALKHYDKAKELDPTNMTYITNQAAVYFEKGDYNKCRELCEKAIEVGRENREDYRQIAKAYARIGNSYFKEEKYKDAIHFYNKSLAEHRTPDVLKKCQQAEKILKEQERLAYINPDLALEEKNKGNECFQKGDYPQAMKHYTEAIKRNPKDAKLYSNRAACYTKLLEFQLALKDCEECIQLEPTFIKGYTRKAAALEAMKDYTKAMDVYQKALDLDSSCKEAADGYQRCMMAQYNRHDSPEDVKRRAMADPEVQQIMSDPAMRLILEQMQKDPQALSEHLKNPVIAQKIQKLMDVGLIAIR
UniProt P53597: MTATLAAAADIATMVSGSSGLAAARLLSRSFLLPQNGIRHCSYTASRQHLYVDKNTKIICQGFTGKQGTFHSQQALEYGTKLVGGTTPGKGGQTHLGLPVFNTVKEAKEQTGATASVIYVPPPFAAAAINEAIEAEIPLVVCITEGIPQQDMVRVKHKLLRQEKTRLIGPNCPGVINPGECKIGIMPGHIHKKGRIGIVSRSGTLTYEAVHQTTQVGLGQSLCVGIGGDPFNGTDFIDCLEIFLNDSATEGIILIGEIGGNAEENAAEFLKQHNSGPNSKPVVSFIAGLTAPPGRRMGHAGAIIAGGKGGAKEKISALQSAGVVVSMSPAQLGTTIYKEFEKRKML
UniProt Q93045: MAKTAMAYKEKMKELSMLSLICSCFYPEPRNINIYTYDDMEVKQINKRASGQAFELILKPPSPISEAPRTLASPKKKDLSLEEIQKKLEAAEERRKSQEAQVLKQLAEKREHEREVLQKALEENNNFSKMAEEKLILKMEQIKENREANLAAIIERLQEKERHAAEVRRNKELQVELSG
UniProt Q9H7L9: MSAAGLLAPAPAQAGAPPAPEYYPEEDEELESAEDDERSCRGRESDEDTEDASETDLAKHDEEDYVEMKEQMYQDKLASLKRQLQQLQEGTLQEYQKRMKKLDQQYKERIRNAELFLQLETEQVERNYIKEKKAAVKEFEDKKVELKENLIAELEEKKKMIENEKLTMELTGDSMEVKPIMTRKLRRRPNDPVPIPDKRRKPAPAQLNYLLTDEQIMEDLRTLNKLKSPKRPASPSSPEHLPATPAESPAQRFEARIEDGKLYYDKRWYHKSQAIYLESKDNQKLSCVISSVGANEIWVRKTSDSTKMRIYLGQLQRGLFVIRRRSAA
UniProt Q6P1X5, whole entry, looked up: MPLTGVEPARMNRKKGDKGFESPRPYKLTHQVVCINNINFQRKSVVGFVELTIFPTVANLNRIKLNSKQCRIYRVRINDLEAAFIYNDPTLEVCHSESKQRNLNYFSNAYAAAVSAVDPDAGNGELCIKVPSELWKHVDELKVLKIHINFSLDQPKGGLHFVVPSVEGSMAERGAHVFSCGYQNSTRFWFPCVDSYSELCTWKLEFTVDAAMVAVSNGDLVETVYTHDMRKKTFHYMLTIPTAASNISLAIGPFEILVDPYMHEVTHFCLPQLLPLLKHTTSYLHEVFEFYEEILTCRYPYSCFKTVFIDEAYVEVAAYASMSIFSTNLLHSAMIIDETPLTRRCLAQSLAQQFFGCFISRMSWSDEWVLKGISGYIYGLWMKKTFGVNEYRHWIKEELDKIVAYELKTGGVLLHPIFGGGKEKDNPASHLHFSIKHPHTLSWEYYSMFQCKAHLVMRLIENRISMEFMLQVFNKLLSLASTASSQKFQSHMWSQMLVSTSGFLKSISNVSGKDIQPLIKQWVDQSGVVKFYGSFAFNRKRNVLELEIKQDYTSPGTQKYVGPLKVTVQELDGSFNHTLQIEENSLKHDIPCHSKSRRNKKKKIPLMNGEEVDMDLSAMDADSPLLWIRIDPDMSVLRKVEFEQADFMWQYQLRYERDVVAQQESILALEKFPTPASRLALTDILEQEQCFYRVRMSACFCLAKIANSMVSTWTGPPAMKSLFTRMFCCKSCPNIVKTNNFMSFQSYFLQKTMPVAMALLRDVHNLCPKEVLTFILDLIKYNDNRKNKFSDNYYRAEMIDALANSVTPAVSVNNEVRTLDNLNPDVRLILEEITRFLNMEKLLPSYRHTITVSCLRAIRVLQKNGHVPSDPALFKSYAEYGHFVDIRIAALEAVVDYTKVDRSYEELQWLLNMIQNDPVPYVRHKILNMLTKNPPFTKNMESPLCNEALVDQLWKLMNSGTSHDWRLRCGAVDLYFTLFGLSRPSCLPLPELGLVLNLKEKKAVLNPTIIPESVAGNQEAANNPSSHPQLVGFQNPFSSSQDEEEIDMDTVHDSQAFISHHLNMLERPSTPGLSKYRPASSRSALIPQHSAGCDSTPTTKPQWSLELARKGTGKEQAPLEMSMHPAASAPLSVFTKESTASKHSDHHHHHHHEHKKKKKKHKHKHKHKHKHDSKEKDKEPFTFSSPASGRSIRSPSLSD
UniProt Q96C24: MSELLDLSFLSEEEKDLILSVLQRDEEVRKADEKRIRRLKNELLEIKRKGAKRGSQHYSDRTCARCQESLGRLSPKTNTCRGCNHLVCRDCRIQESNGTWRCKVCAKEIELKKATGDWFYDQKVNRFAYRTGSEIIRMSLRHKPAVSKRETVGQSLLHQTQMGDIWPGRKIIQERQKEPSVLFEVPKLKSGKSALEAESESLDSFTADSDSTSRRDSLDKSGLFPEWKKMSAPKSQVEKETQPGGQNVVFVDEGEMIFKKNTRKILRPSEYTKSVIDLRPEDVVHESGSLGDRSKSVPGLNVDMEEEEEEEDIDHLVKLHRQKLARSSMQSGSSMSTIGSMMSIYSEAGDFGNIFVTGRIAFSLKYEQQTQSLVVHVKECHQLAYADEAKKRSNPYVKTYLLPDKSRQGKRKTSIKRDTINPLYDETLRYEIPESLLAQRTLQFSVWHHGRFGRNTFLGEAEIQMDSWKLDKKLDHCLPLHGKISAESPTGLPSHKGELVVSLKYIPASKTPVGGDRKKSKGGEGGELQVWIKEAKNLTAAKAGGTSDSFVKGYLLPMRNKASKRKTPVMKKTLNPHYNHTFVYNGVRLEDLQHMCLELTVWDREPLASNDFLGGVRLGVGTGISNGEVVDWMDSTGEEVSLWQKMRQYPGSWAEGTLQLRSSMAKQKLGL
UniProt P51687: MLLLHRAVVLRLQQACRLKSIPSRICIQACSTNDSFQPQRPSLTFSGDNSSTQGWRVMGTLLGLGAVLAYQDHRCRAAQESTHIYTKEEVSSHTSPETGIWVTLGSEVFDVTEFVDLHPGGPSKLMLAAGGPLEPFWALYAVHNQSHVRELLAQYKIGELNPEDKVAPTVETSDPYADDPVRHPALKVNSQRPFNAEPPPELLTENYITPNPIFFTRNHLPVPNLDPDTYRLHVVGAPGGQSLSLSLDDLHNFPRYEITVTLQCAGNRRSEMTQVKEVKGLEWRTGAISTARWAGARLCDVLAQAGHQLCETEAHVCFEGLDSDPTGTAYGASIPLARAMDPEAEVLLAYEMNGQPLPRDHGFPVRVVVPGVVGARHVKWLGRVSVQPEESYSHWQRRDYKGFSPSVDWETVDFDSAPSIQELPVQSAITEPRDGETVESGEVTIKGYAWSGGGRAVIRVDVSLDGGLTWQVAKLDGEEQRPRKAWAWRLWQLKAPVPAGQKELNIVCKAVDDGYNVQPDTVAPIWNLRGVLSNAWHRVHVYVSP
UniProt O15260: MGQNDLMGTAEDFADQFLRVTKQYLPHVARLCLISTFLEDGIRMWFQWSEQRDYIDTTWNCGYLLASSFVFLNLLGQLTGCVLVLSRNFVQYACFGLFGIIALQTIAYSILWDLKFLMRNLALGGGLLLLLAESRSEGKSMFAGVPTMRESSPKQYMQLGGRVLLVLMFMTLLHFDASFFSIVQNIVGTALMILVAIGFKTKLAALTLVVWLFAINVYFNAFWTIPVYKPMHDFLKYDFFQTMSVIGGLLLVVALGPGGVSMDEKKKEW

[1] = compound: C/C(=N\NC(=O)C1=CC(=CC=C1)S(=O)(=O)N2CCOCC2)/C3=C(C=CC(=C3)Cl)O
In short: as §1

[2] = compound: C1=CC(=CC=C1C2=NC3=C(N2)C=C(C=C3)C(=O)N)OC4=CC=C(C=C4)Cl
In short: as §1

[3] = compound: C1=CC2=C(C=CC(=C2)/C=C\3/C(=O)NC(=NCC4=CC=CS4)S3)N=C1
In short: as §1

[4] = compound: C1=CC2=NC=CN=C2C=C1/C=C/3\C(=O)NC(=O)S3
In short: as §1

[5] = compound: C1=CC=C(C=C1)C2=NC(=C(N2)C3=CC=NC=C3)C4=CC(=C(C=C4)Cl)O
In short: as §1

[6] = compound: C1=CC=C2C(=C1)C3=NNC4=CC=CC(=C43)C2=O
In short: as §1

[7] = compound: C1CCN(C1)C(=O)NC2=CC=CC(=C2)NC3=NC=C(C(=N3)NCCC4=CN=CN4)Br
In short: as §1

[8] = compound: C1CN(CCC1(CC2=CC=C(C=C2)Cl)N)C3=NC=NC4=C3C=CN4
In short: as §1

IRAK-1-4 Inhibitor I = compound: C1COCCN1CCN2C3=CC=CC=C3N=C2NC(=O)C4=CC(=CC=C4)[N+](=O)[O-] [IRAK-1-4 Inhibitor I]
In short: as §1

ibrutinib = compound: C=CC(=O)N1CCC[C@@H](n2nc(-c3ccc(Oc4ccccc4)cc3)c3c(N)ncnc32)C1 [ibrutinib]
In short: as §1

[9] = compound: CC(=O)c1cnc2ccc(-c3cc(Cl)c(O)c(Cl)c3)nc2c1N[C@H]1CC[C@H](CN(C)C)CC1
In short: as §1

ralimetinib = compound: CC(C)(C)Cn1c(N)nc2ccc(-c3[nH]c(C(C)(C)C)nc3-c3ccc(F)cc3)nc21 [ralimetinib]
In short: as §1

[10] = compound: CC(C)(O)CC(=O)NCCn1ccc2ncnc(Nc3ccc(Oc4cccc(C(F)(F)F)c4)c(Cl)c3)c21
In short: as §1

[11] = compound: CC(C)C1=C2N=C(C=C(N2N=C1)NCC3=CC=CC=C3)NCCCCCCN
In short: as §1

[12] = compound: CC1=C(C(CC(=O)N1)C2=CC=C(C=C2)C(F)(F)F)C(=O)NC3=C(C=C4C(=C3)C=NN4)F
In short: as §1

[13] = compound: CC1=C(C2=C(C=C1)C(=O)C3=CC=CC=C3N2CCCN)C
In short: as §1

[14] = compound: CC1=C(C=C(C=C1)NC(=O)C2=CC(=CC=C2)C(C)(C)C#N)NC3=CC4=C(C=C3)N=CN(C4=O)C
In short: as §1

[15] = compound: CC1=C(C=C(C=C1)NC(=O)C2=CC(=CC=C2)N(C)C)NC(=O)C3=CC=C(C=C3)O
In short: as §1

[16] = compound: CC1=CC=C(C=C1)SC2=C3C=C(SC3=CN=C2)C(=O)N
In short: as §1

Measured: log2 fold change

STX10 (UniProt O60499)
inactive: erlotinib -0.031 | [1] 0.035 | [2] 0.015 | [3] 0.081 | [4] -0.09 | [5] -0.02 | [6] -0.055 | [7] -0.032 | [8] 0.063 | IRAK-1-4 Inhibitor I 0.025 | ibrutinib 0.066 | [9] -0.091 | ralimetinib 0.057 | [10] -0.018 | [11] -0.031 | [12] -0.148 | [13] -0.016 | [14] 0.022 | [15] 0.01 | [16] -0.01

TAF4 (UniProt O00268)
inactive: erlotinib -0.004 | [1] 0.007 | [2] -0.04 | [3] 0.045 | [4] -0.041 | [5] 0.038 | [6] -0.024 | [7] -0.08 | [8] 0.024 | IRAK-1-4 Inhibitor I 0.013 | ibrutinib -0.178 | [9] -0.047 | ralimetinib -0.001 | [10] -0.053 | [11] 0.057 | [12] 0.007 | [13] -0.019 | [14] -0.021 | [15] 0.003 | [16] 0.026

SUGP1 (UniProt Q8IWZ8)
inactive: erlotinib -0.007 | [1] -0.044 | [2] 0.064 | [3] -0.024 | [4] 0 | [5] -0.01 | [6] 0.036 | [7] -0.007 | [8] -0.018 | IRAK-1-4 Inhibitor I 0.006 | ibrutinib 0.059 | [9] 0.02 | ralimetinib -0.009 | [10] 0.013 | [11] -0.008 | [12] 0.016 | [13] 0.019 | [14] -0.003 | [15] -0.03 | [16] -0.035

SYNE1 (UniProt Q8NF91)
inactive: erlotinib 0.05 | [1] 0.015 | [2] 0.037 | [3] -0.018 | [4] -0.049 | [5] 0.081 | [6] -0.191 | [7] -0.067 | [8] 0.101 | IRAK-1-4 Inhibitor I 0.173 | ibrutinib -0.011 | [9] -0.096 | ralimetinib -0.125 | [10] -0.259 | [11] 0.019 | [12] -0.008 | [13] -0.168 | [14] 0.326 | [15] 0.037 | [16] -0.002

STRN4 isoform 3 (UniProt Q9NRL3)
inactive: erlotinib -0.026 | [1] -0.032 | [2] 0.004 | [3] -0.01 | [4] -0.006 | [5] -0.013 | [6] 0.032 | [7] -0.015 | [8] -0.006 | IRAK-1-4 Inhibitor I 0.009 | ibrutinib 0.025 | [9] -0.023 | ralimetinib -0.011 | [10] 0.013 | [11] 0 | [12] 0.015 | [13] -0.008 | [14] -0.053 | [15] 0.023 | [16] -0.009

STIP1 isoform 2 (UniProt P31948)
inactive: erlotinib -0.014 | [1] 0.039 | [2] -0.004 | [3] -0.004 | [4] -0.011 | [5] 0.005 | [6] 0.035 | [7] 0.045 | [8] -0.006 | IRAK-1-4 Inhibitor I -0.022 | ibrutinib -0.003 | [9] 0.018 | ralimetinib -0.039 | [10] 0.005 | [11] 0.018 | [12] -0.01 | [13] 0.017 | [14] -0.02 | [15] -0.038 | [16] 0.015

SUCLG1 (UniProt P53597)
inactive: erlotinib 0.052 | [1] 0.022 | [2] 0.033 | [3] -0.005 | [4] 0.018 | [5] 0.051 | [6] -0.035 | [7] -0.017 | [8] -0.021 | IRAK-1-4 Inhibitor I 0 | ibrutinib 0.038 | [9] -0.016 | ralimetinib 0.025 | [10] 0.015 | [11] 0.047 | [12] -0.048 | [13] -0.025 | [14] 0.004 | [15] 0.039 | [16] -0.017

STMN2 isoform 2 (UniProt Q93045)
inactive: erlotinib -0.038 | [1] 0.041 | [2] -0.038 | [3] -0.047 | [4] -0.006 | [5] 0.023 | [6] 0.015 | [7] 0.059 | [8] 0.009 | IRAK-1-4 Inhibitor I -0.009 | ibrutinib -0.055 | [9] 0.024 | ralimetinib -0.043 | [10] 0.029 | [11] 0.058 | [12] 0.009 | [13] 0.039 | [14] 0 | [15] -0.01 | [16] -0.027

SUDS3 (UniProt Q9H7L9)
inactive: erlotinib 0.006 | [1] 0.024 | [2] 0.002 | [3] 0.011 | [4] -0.03 | [5] 0.014 | [6] -0.013 | [7] -0.007 | [8] 0.008 | IRAK-1-4 Inhibitor I -0.003 | ibrutinib 0.053 | [9] 0.018 | ralimetinib 0.015 | [10] -0.061 | [11] 0.012 | [12] 0.026 | [13] -0.012 | [14] 0.059 | [15] 0.022 | [16] -0.015

SYNRG (UniProt Q9UMZ2)
inactive: erlotinib 0.029 | [1] -0.037 | [2] 0.078 | [3] 0.015 | [4] -0.012 | [5] -0.019 | [6] -0.01 | [7] -0.004 | [8] 0.021 | IRAK-1-4 Inhibitor I 0.016 | ibrutinib -0.023 | [9] -0.028 | ralimetinib -0.016 | [10] -0.083 | [11] 0.015 | [12] -0.019 | [13] -0.018 | [14] -0.042 | [15] 0.022 | [16] -0.052

TAF2 (UniProt Q6P1X5)
inactive: erlotinib 0.033 | [1] 0.052 | [2] 0.029 | [3] 0.062 | [4] 0.056 | [5] -0.004 | [6] -0.017 | [7] -0.008 | [8] -0.004 | IRAK-1-4 Inhibitor I 0.088 | ibrutinib 0.089 | [9] 0.025 | ralimetinib 0.075 | [10] 0 | [11] -0.033 | [12] -0.046 | [13] 0.068 | [14] 0.005 | [15] -0.028 | [16] 0.03

STON2 isoform 3 (UniProt Q8WXE9)
inactive: erlotinib -0.041 | [1] 0.017 | [2] 0.042 | [3] -0.052 | [4] 0.005 | [5] -0.009 | [6] -0.095 | [7] -0.016 | [8] -0.028 | IRAK-1-4 Inhibitor I -0.018 | ibrutinib 0.058 | [9] -0.024 | ralimetinib 0.048 | [10] -0.045 | [11] -0.007 | [12] 0.032 | [13] -0.017 | [14] -0.02 | [15] 0.049 | [16] 0.046

Reprinted from the listing (two entries):
STRN4 isoform 3 (UniProt Q9NRL3)
inactive: erlotinib -0.026 | [1] -0.032 | [2] 0.004 | [3] -0.01 | [4] -0.006 | [5] -0.013 | [6] 0.032 | [7] -0.015 | [8] -0.006 | IRAK-1-4 Inhibitor I 0.009 | ibrutinib 0.025 | [9] -0.023 | ralimetinib -0.011 | [10] 0.013 | [11] 0 | [12] 0.015 | [13] -0.008 | [14] -0.053 | [15] 0.023 | [16] -0.009

STIP1 isoform 2 (UniProt P31948)
inactive: erlotinib -0.014 | [1] 0.039 | [2] -0.004 | [3] -0.004 | [4] -0.011 | [5] 0.005 | [6] 0.035 | [7] 0.045 | [8] -0.006 | IRAK-1-4 Inhibitor I -0.022 | ibrutinib -0.003 | [9] 0.018 | ralimetinib -0.039 | [10] 0.005 | [11] 0.018 | [12] -0.01 | [13] 0.017 | [14] -0.02 | [15] -0.038 | [16] 0.015

More results follow:

SYTL4 (UniProt Q96C24)
inactive: erlotinib 0.012 | [1] -0.109 | [2] -0.06 | [3] -0.153 | [4] -0.03 | [5] 0.01 | [6] 0.076 | [7] -0.007 | [8] 0.027 | IRAK-1-4 Inhibitor I -0.072 | ibrutinib -0.011 | [9] 0.065 | ralimetinib -0.019 | [10] -0.027 | [11] -0.032 | [12] 0.148 | [13] 0.002 | [14] -0.03 | [15] -0.006 | [16] -0.125

SUOX (UniProt P51687)
inactive: erlotinib -0.045 | [1] 0.061 | [2] 0.049 | [3] 0.058 | [4] 0.02 | [5] -0.003 | [6] 0.002 | [7] -0.028 | [8] 0.056 | IRAK-1-4 Inhibitor I -0.014 | ibrutinib -0.013 | [9] 0.004 | ralimetinib -0.033 | [10] -0.02 | [11] 0.033 | [12] 0 | [13] -0.016 | [14] 0.023 | [15] 0.044 | [16] -0.016

SURF4 (UniProt O15260)
inactive: erlotinib 0.017 | [1] -0.048 | [2] -0.012 | [3] -0.008 | [4] 0.015 | [5] 0.014 | [6] -0.062 | [7] -0.019 | [8] 0.021 | IRAK-1-4 Inhibitor I 0.007 | ibrutinib 0.003 | [9] 0.015 | ralimetinib 0.013 | [10] -0.068 | [11] -0.059 | [12] 0.033 | [13] 0.01 | [14] 0.015 | [15] -0.049 | [16] 0.004

STK11 (UniProt Q15831)
inactive: erlotinib -0.005 | [1] -0.033 | [2] 0.026 | [3] 0.024 | [4] -0.005 | [5] -0.011 | [6] 0.042 | [7] 0.046 | [8] 0.013 | IRAK-1-4 Inhibitor I -0.013 | ibrutinib 0.035 | [9] -0.172 | ralimetinib -0.025 | [10] 0.03 | [11] -0.022 | [12] 0.008 | [13] 0.031 | [14] 0.01 | [15] 0.011 | [16] -0.012
